The values that follow come from PubChem BioAssay AID493014 (National Center for Advancing Translational Sciences (NCATS), 2011).

Molecules are shown by their SMILES. This is one part of the list. These are further read-outs of the screen, such as a control signal, another cell line or another target. No call is given for them. Most of these compounds were active or inconclusive in the main read-out, so they are no random draw. Potencies come from curve fits of mixed quality, noted in brackets.

The test is described as follows: qHTS Assay to Find Inhibitors of Chronic Active B-Cell Receptor Signaling. The conditions noted are these: ABC-DLBCL IkBa-CBG/CBR reporter, luminescence ratio (green luciferase fused to IkBa over red control in TMD8 lymphoma cells), 4 h. A digest of the protocol:
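TMD8 ABC-DLBCL cells carrying doxycycline-inducible green luciferase fused to IkappaBalpha plus unfused red luciferase were exposed to compounds (up to 46 uM) for 4 hrs at 37C. Activity came from the overlap-corrected green/red luminescence ratio.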

Where [1] appears, read: measured here: CBR red luminescence, cell number.
[2] abbreviates: measured here: IkBa-CBG green luminescence.

In the case of `N#Cc1ccccc1NC(=O)CNc1ccc(Cl)c(C(F)(F)F)c1`, the concentration at half-maximal activity (AC50) – broadly, the midpoint of the concentration-response curve, whichever way the signal moves – under setting [1] is 29.1 µM [falling, single point].

As for `CC1(CCC(=O)N2CCCC(N3CCN(c4ccc(F)cc4)CC3)C2)CC1` (configuration not stated), under setting [1], the concentration at half-maximal activity (AC50) is 0.562 µM [falling, full curve, poor fit].

For `CCOC(=O)c1ccc(NC(=O)N2CCc3ccccc32)cc1`, the AC50 under setting [1] was 16.4 µM [falling, partial curve, poor fit].

`CCc1ccc(OCC(=O)Nc2ccc(S(=O)(=O)N3CCOCC3)cc2)cc1`: the AC50 under setting [1] is 8.2 µM [rising, partial curve].

With `CCCCSc1nnc(-c2ccc(OC)cc2)n1C`, the concentration at half-maximal activity (AC50) under setting [1] is 2.31 µM [falling, single point].

In the case of `CCc1ccc(C(CNc2nc(C(F)(F)F)nc3ccccc23)N(C)C)cc1` (configuration not stated), the AC50 under setting [1] was 22.4 µM [falling, single point].

On to `Brc1ccc2nc(-c3c[nH]c4ccccc34)cn2c1`, for which the half-maximal activity concentration (AC50) under setting [1] is 0.631 µM [rising, partial curve, poor fit].

Regarding `COc1ccc(NC(=O)CCCc2ccccc2)cc1OC`, the AC50 under setting [1] was 6.31 µM [rising, partial curve, poor fit].

On to `c1ccc(Sc2ncnc3c2oc2ccccc23)nc1`, for which, under setting [1], the half-maximal activity concentration (AC50) is 29.1 µM [falling, single point].

As for `COc1ccc(COCC(O)CN2CCC(CN3C(=O)c4cccc5cccc(c45)C3=O)CC2)cc1OC` (configuration not stated), under setting [1], the half-maximal activity concentration (AC50) is 23.1 µM [falling, partial curve, poor fit].

Turning to `COc1cccc(C(=O)O/N=C(\N)c2ccncc2)c1`, under setting [1], the AC50 is 14.1 µM [falling, single point].

As to `S=C(Nc1ccc(N2CCOCC2)cc1)Nc1ccc2snnc2c1`, under setting [1], the AC50 was 35.5 µM [rising, single point].

For the compound `Cc1ccc(CSC2=NCCN2C(=O)C2CC2)cc1`, the AC50 under setting [1] is 1.46 µM [rising, full curve, poor fit].

For `Cc1nn(-c2ccc(Cl)c(Cl)c2)c(C)c1C(=O)O`, the half-maximal activity concentration (AC50) under setting [1] was 35.5 µM [rising, single point].

`CC(C)n1nnnc1SCC(=O)Nc1ccc2c(c1)OCCO2`: under setting [1], the AC50 is 17.8 µM [falling, single point].

As for `O=C(/C=C/c1ccc(Cl)cc1Cl)c1ccc[nH]1`, under setting [1], the AC50 was 35.5 µM [falling, single point].

As for `Cc1cc(C(=O)NCc2ccco2)c2cc(F)ccc2n1`, the AC50 is 22.4 µM [falling, single point] under setting [1] and 7.08 µM [rising, partial curve, poor fit] under setting [2].

For `O=C(COC(=O)c1ccccc1Cc1ccccc1)Nc1ccc(SC(F)F)cc1`, the AC50 under setting [1] is 29.1 µM [falling, single point].

For `N#C/C(=C/c1ccc(O)c(O)c1)c1nc2ccccc2[nH]1`, the AC50 under setting [1] was 35.5 µM [falling, single point].

Regarding `CCCCc1ccc(NC(=O)Nc2cccnc2)cc1`, the AC50 is 35.5 µM [rising, single point] under setting [1] and 22.4 µM [falling, partial curve, poor fit] under setting [2].

Consider `Cc1cc(NC(=O)Nc2ccc(Cl)cc2)n(C)n1`, for which the AC50 under setting [1] is 20 µM [rising, partial curve, poor fit].

As to `O=C1CCCC2=C1C(c1ccccc1)n1c(s/c(=C/c3cccc(F)c3)c1=O)=N2` (configuration not stated), under setting [1], the AC50 was 29.1 µM [rising, partial curve, poor fit].

Consider `CCc1ccc(NC(=O)CSC2=Nc3ccccc3C3=NC(CCC(=O)NCc4ccccc4)C(=O)N23)cc1` (configuration not stated), for which the AC50 under setting [1] is 5.01 µM [falling, full curve].

Take `CCc1cc2c3c(c(=O)oc2cc1OCC(=O)OC)CCCC3`: the AC50 under setting [1] was 35.5 µM [rising, partial curve, poor fit].

Turning to `O=C(N/N=C\c1ccc2c(c1)OCO2)c1cncc(Br)c1`, the AC50 under setting [1] is 1.12 µM [falling, full curve, poor fit].

In the case of `O=C(Nc1ccsc1C(=O)O)c1cccc(C(F)(F)F)c1`, the AC50 under setting [1] was 14.1 µM [falling, single point].

Consider `COc1ccc(/C=C/C(=O)O)cc1O`, for which the concentration at half-maximal activity (AC50) under setting [1] is 6.51 µM [rising, single point].

Turning to `Fc1ccc2cc(-c3ccccc3)ncc2c1`, under setting [1], the AC50 was 23.1 µM [rising, single point].

As to `O=S(=O)(NCCc1csc(-c2ccccc2)n1)c1ccc2c(c1)OCCO2`, the AC50 under setting [1] is 4.61 µM [falling, single point].

As to `Cc1ccc(NC2Sc3ccccc3NC2=O)cc1Cl` (configuration not stated), the AC50 under setting [1] was 7.94 µM [falling, partial curve, poor fit].

For the compound `CC(C)=CCOc1c2ccoc2cc2oc(=O)ccc12`, the half-maximal activity concentration (AC50) under setting [1] is 23.1 µM [rising, partial curve].

In the case of `CCOC(=O)C1(Cc2ccccc2)CCN(Cc2cnn(CC)c2)CC1`, the half-maximal activity concentration (AC50) under setting [1] was 14.1 µM [falling, partial curve, poor fit].

Regarding `CCOC(=O)[C@H]1[C@H]2COc3ccccc3[C@@H]2N2C(=O)c3cc(Cl)ccc3NC(=O)[C@@]12C`, the half-maximal activity concentration (AC50) under setting [1] was 13 µM [falling, partial curve].

`O=C(CNC(=O)Cc1ccccc1)NCC(=O)OCC(=O)c1ccc(F)cc1`: the AC50 under setting [1] was 17.8 µM [rising, single point].

As to `CC(=O)Nc1c(C(N)=O)oc2ccc(Cl)cc12`, the half-maximal activity concentration (AC50) under setting [1] was 1.58 µM [falling, full curve].

Regarding `N=C(N)SCP(=O)(c1ccccc1)c1ccccc1`, under setting [1], the half-maximal activity concentration (AC50) was 11.2 µM [falling, partial curve].

Regarding `CCn1c(SCC(=O)N2CCCCC2C)nc2ccsc2c1=O` (configuration not stated), the concentration at half-maximal activity (AC50) under setting [1] is 3.98 µM [falling, partial curve, poor fit].

Turning to `Cc1sc2ncnc(OCC(=O)N3CCN(S(=O)(=O)c4ccc(Cl)cc4)CC3)c2c1C`, the AC50 under setting [1] was 4.11 µM [falling, single point].

In the case of `CC1CSc2nc3sc4c(c3c(=O)n21)CCCC4` (configuration not stated), the concentration at half-maximal activity (AC50) under setting [1] is 11.2 µM [rising, partial curve, poor fit].

On to `CCOc1ccc(CCNS(=O)(=O)c2cc(Br)cc3c2N(C(C)=O)CC3)cc1OCC`, for which the half-maximal activity concentration (AC50) under setting [1] is 2.24 µM [rising, partial curve, poor fit].

Consider `Cc1cc(N2CCN(c3ccccc3)CC2)nc2ccccc12`, for which the half-maximal activity concentration (AC50) under setting [1] was 2.24 µM [rising, full curve, poor fit].

In the case of `CCOC(=O)c1c(NC(=O)c2ccc(S(=O)(=O)N(CC(C)C)CC(C)C)cc2)sc2c1CCN(C(=O)OCC)C2`, the AC50 under setting [2] is 2.82 µM [rising, partial curve, poor fit].

As to `Cc1ccc(NC(=O)C[n+]2ccccc2)cc1[N+](=O)[O-]`, the AC50 under setting [1] is 0.562 µM [falling, full curve, poor fit].

Take `Cc1cc(C)cc(NS(=O)(=O)c2ccc3c(c2)c(=O)n(C)c(=O)n3C)c1`: under setting [1], the AC50 is 20.6 µM [falling, partial curve, poor fit].

For `CC1(C)CC2(C)OC(=N)C1(C#N)C2(C#N)C#N` (configuration not stated), under setting [1], the half-maximal activity concentration (AC50) was 17.8 µM [falling, single point].

`CN(C)CCOc1ccc(-c2c(-c3ccsc3)sc3ccccc23)cc1`: under setting [1], the AC50 is 29.1 µM [falling, single point].

Regarding `CC1=Nc2ccccc2/C1=C/c1sc(=S)n(-c2cccc(C(=O)O)c2)c1O`, under setting [1], the concentration at half-maximal activity (AC50) was 35.5 µM [falling, single point].

For the compound `O=C(Nc1ncc2c(n1)-c1ccccc1CC2)c1cccc(Cl)c1`, the AC50 under setting [1] was 3.98 µM [falling, partial curve, poor fit].

Turning to `Cc1ccc(C)c(S(=O)(=O)N2CCN(C(=O)c3ccccn3)CC2)c1`, under setting [1], the concentration at half-maximal activity (AC50) is 0.731 µM [rising, full curve, poor fit].

Take `Nc1ccccc1-c1nc2ccccc2c(=O)o1`: the AC50 under setting [1] was 35.5 µM [falling, single point].

Take `CS(=O)(=O)N(CC(O)Cn1c2ccccc2c2ccccc21)c1cccc2ccccc12` (configuration not stated): under setting [1], the concentration at half-maximal activity (AC50) was 16.4 µM [falling, partial curve, poor fit].

Consider `CCC(CC)NC(=O)c1cc2c(C)nn(Cc3ccccc3Cl)c2s1`, for which the half-maximal activity concentration (AC50) under setting [2] is 8.2 µM [falling, partial curve, poor fit].

As to `O=C(c1ccncc1)N1CCN(C(=O)c2ccncc2)CC1`, under setting [1], the AC50 was 29.1 µM [falling, single point].

In the case of `COC(=O)CSc1nnc(-c2ccc(OC)cc2OC)o1`, under setting [1], the AC50 was 20.6 µM [rising, single point].

`CC1(C)CC(=O)C(C=Nc2ccc3c(c2)OCO3)=C(O)C1`: under setting [1], the concentration at half-maximal activity (AC50) was 5.8 µM [rising, full curve].

`CCC(=O)Nc1cccc(C2=NOC3(C2)C[C@@H](C(N)=O)N(C(=O)C(c2ccccc2)c2ccccc2)C3)c1` (some centres not stated): the concentration at half-maximal activity (AC50) under setting [1] was 6.31 µM [falling, single point].

As for `CSc1cccc(NC(=O)CCn2c(=O)c3cccn3c3cccnc32)c1`, the AC50 under setting [1] was 6.31 µM [rising, partial curve, poor fit].

For the compound `CC(C)Nc1ncnc2c1cnn2Cc1ccc(Cl)cc1`, under setting [1], the AC50 was 5.01 µM [rising, single point].

Turning to `Cc1ccccc1CC1(CO)CCCN(Cc2cn[nH]c2-c2ccccc2)C1` (configuration not stated), under setting [1], the concentration at half-maximal activity (AC50) was 6.31 µM [rising, single point].

Regarding `c1ccc(-c2oc3ncnc(N4CCOCC4)c3c2-c2ccccc2)cc1`, the AC50 is 2.59 µM [rising, partial curve] under setting [1] and 1.64 µM [falling, partial curve, poor fit] under setting [2].

In the case of `CC(C)(C)OC(=O)NCc1ccc(NC(=O)c2nc[nH]c2C(=O)N[C@@H](Cc2ccccc2)C(=O)OC(C)(C)C)cc1`, under setting [1], the AC50 was 1 µM [rising, partial curve, poor fit].

With `COc1ccccc1Nc1c2ccccc2nc2ccccc12`, the AC50 under setting [1] was 8.91 µM [falling, partial curve].

Regarding `COC(=O)c1cc(=O)nc2sc3ccccc3n12`, the half-maximal activity concentration (AC50) under setting [1] is 7.08 µM [rising, partial curve, poor fit].

With `COc1ccc(C2=NN(CC(=O)Nc3ccccc3C)C(=O)CC2)cc1`, under setting [1], the AC50 is 22.4 µM [rising, single point].
